The target in assay [1] is T1, oligohistidine-tagged PBP1A (E. coli) (UniProt P02918).
T1 sequence: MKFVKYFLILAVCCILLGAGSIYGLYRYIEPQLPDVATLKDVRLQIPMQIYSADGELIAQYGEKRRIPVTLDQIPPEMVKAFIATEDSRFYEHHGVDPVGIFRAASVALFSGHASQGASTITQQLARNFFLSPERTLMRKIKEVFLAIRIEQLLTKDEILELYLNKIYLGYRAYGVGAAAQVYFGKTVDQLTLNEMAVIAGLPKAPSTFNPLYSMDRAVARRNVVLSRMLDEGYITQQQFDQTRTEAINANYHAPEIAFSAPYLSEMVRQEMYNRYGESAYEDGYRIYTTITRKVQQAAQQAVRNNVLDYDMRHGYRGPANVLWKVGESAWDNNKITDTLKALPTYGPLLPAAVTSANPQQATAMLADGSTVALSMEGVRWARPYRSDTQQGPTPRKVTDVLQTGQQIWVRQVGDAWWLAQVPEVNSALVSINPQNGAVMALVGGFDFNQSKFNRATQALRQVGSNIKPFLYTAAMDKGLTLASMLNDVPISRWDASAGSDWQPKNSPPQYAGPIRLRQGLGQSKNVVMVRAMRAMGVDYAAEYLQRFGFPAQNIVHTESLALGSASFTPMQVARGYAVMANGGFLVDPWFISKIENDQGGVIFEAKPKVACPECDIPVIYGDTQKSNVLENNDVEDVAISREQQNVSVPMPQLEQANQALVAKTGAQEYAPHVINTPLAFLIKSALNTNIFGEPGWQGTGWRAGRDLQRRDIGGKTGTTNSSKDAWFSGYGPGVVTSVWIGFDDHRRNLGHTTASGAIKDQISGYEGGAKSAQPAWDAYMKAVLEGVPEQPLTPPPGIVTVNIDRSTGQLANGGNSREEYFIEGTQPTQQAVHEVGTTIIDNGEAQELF
Briefly: MST; microscale thermophoresis curves; means ± SD from three independent experiments; which partner was labelled is not told (Text S1); both purified. On the technique in general: In MST a laser heats a spot of the sample, and binding alters the fluorescence response.

Assay [2] concerns the target T1, oligohistidine-tagged PBP1A (E. coli). Briefly: pull-down; purified oligohistidine-tagged protein mixed with untagged LdtD, binding to Ni2+-NTA beads, Coomassie-stained SDS-PAGE of applied and eluted fractions; both purified.
Assay [3] has as its target T2, oligohistidine-tagged LpoB (E. coli) (UniProt P0AB38).
T2 sequence: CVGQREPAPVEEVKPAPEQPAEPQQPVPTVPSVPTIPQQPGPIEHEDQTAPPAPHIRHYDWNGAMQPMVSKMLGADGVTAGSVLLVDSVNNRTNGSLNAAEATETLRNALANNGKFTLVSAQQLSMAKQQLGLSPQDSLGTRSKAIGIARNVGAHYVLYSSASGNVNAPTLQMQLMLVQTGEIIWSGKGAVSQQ
The assay is described as above.

Assay [4] addresses T3, oligohistidine-tagged PBP1B (E. coli, UniProt P02919 1-844).
T3 construct: PBP1B, bifunctional peptidoglycan synthase (glycosyltransferase and DD-transpeptidase) of Escherichia coli; source: purified
T3 sequence (looked up): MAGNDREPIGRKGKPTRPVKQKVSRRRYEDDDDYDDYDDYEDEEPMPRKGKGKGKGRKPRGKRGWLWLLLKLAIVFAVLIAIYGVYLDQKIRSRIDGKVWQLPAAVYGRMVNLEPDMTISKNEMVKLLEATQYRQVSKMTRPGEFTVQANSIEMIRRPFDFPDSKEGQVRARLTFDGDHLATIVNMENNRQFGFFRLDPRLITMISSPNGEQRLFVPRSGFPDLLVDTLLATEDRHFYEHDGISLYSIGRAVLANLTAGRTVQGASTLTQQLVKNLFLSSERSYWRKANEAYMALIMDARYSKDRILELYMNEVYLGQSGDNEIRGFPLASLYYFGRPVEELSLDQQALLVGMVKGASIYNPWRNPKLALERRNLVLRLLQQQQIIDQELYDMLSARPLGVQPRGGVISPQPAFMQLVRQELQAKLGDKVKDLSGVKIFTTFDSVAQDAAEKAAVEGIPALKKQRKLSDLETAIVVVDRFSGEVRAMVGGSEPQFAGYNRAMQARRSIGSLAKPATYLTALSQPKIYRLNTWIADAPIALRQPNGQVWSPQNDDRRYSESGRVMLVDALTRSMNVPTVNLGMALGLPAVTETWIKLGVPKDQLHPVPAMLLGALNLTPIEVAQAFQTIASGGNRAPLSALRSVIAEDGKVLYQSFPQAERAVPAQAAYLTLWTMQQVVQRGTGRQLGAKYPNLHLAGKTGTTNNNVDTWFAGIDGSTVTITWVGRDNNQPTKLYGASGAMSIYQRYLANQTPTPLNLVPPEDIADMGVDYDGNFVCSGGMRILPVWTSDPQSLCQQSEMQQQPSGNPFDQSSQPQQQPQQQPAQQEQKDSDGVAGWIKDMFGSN
The description is as above.

Results are given in words; binding and its absence hold for the method and conditions named. Some binding calls cover weakened binding; strength is not graded here. Where a sequence is shown, tags or fusion partners need not be part of it.

B1: LdtD (LD-transpeptidase, formerly YcbB), untagged (enzyme, E. coli, UniProt P22525 1-615, looked up)
chain: MLLNMMCGRQLSAISLCLAVTFAPLFNAQADEPEVIPGDSPVAVSEQGEALPQAQATAIMAGIQPLPEGAAEKARTQIESQLPAGYKPVYLNQLQLLYAARDMQPMWENRDAVKAFQQQLAEVAIAGFQPQFNKWVELLTDPGVNGMARDVVLSDAMMGYLHFIANIPVKGTRWLYSSKPYALATPPLSVINQWQLALDKGQLPTFVAGLAPQHPQYAAMHESLLALLCDTKPWPQLTGKATLRPGQWSNDVPALREILQRTGMLDGGPKITLPGDDTPTDAVVSPSAVTVETAETKPMDKQTTSRSKPAPAVRAAYDNELVEAVKRFQAWQGLGADGAIGPATRDWLNVTPAQRAGVLALNIQRLRLLPTELSTGIMVNIPAYSLVYYQNGNQVLDSRVIVGRPDRKTPMMSSALNNVVVNPPWNVPPTLARKDILPKVRNDPGYLESHGYTVMRGWNSREAIDPWQVDWSTITASNLPFRFQQAPGPRNSLGRYKFNMPSSEAIYLHDTPNHNLFKRDTRALSSGCVRVNKASDLANMLLQDAGWNDKRISDALKQGDTRYVNIRQSIPVNLYYLTAFVGADGRTQYRTDIYNYDLPARSSSQIVSKAEQLIR
notes: LdtD (formerly YcbB), LD-transpeptidase of Escherichia coli; Printed as 'untagged LdtD'; source: purified
On to B1, for which the binding entry in assay [1] was “no binding”; in assay [2] it was “no binding”; in assay [3], “no binding”; in assay [4], “binds”.

Source of the values: PMC6428754, “Peptidoglycan Remodeling Enables Escherichia coli To Survive Severe Outer Membrane Assembly Defect” (mBio, 2019).
